Primary screen of a compound library

Amino acid sequences for entries named in this document (tags omitted). Residues count along the entry.
UniProt Q8IDJ8, 1-583: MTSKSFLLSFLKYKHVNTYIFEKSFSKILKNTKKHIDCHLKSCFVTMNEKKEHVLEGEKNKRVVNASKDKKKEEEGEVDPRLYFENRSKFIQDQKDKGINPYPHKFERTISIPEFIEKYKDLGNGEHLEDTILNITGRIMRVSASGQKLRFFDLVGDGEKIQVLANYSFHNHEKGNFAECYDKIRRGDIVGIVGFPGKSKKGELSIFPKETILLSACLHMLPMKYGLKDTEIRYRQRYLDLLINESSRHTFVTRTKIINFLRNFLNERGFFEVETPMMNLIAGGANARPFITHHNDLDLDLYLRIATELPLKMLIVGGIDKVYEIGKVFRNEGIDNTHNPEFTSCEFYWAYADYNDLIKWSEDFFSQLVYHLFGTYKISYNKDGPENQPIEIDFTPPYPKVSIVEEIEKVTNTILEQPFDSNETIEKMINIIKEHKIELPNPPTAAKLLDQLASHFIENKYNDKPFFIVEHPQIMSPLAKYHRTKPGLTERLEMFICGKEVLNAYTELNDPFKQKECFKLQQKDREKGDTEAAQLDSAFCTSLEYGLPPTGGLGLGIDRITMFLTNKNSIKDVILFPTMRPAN
UniProt P9WFT3, whole entry: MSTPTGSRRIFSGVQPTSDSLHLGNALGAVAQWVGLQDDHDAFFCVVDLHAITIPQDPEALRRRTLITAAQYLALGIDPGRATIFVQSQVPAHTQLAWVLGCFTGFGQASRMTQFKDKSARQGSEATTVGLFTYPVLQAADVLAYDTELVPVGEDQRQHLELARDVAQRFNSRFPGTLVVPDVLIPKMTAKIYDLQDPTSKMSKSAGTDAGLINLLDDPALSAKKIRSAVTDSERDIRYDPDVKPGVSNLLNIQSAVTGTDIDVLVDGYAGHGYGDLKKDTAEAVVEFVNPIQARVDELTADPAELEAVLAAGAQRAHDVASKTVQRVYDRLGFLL

The filed quantity is “Percent Effect” (%). The controls that fix the scale are not given in the record; negative values are as filed. This is an unselected part of the compounds tested. Two or more numbers in one place are separate tests of the same structure; such repeats can differ widely. A dash means the value is not listed here; it may have been measured.

A: 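Enzyme assay of the cytosolic lysyl-tRNA synthetase in 384-well plates, read by luminescence. Target: Lysine-tRNA ligase, Plasmodium falciparum 3D7 (UniProt Q8IDJ8). Tested at 30 µM. Direction is inferred from only a few compounds that gave an IC50; most scored high, so higher reads as stronger inhibition. Size under these conditions: about 69,000 compounds, about 49 of them at 50% or above in at least one test.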
B: 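Tryptophan-tRNA ligase, Mycobacterium tuberculosis (UniProt P9WFT3). Enzyme assay of tryptophanyl-tRNA synthetase; the read-out is not stated. Concentration: 10 µM. Direction is not recorded; retested compounds ran higher, which suggests that high means inhibition. Size under these conditions: about 65,000 compounds, about 64 of them at 50% or above in at least one test.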
C: 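Cell assay of Leishmania donovani living inside macrophages; the read-out is not stated. Compounds at 30 µM. The record gives no direction; compounds that gave an IC50 in retests scored well above the rest, so higher reads as stronger inhibition. Of about 69,000 compounds tested this way, about 1,000 (1.5%) reached 50% or more in at least one test.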

| structure | A | B | C |
|---|---|---|---|
| `Cn1c(CN2CCCC2)nnc1C1CCCN(C(=O)C2CCOCC2)C1` (stereo unspecified) | 0.2775 | -5.805 | 0.4024 |
| `COCCn1cc(NC(=O)NCC(C)N2CCOCC2)cn1` (stereo unspecified) | 2.253 | -7.066 | -18.73 |
| `CO[C@H]1CCN(C(=O)Cc2ccsc2)[C@@H]2CN(CC3CC3)C[C@H]12` | 5.542 | -6.105 | - |
| `O=C(O)[C@@H]1CN(C(=O)c2cc(C3CC3)n[nH]2)C[C@H]1c1cccc(F)c1` | -1.178 | 0.9046 | 22.31 |
| `CSc1ccc(-c2nc(CN3C[C@@H](C)NC[C@@H]3C)c(C)o2)cc1` | 5.7 | 2.808 | 42.57 |
| `CCCc1cc(N2CCCCC2Cn2cc(C)cn2)n2ncnc2n1` (stereo unspecified) | 4.398 | -5.986 | 7.983 |
| `CCN(c1ccc(C(=O)N2CCCCCC2)cc1)S(=O)(=O)CC` | 4.361 | 0.2935 | -18.07 |
| `OCCc1cc(CC2(NCc3ccc(C(F)(F)F)cc3)COC2)no1` | 3.418 | 3.439 | 44.16 |
| `O=C(CN1CCC(c2ccccc2)CC1)NCc1cc2n(n1)CCNC2` | 0.3209 | 0.516 | 55.19 |
| `COCCN1C[C@H]2[C@@H](C1)N(Cc1ccc(C)o1)CC[C@H]2OC` | -0.6746 | 4.852 | - |
| `COc1c(CNCCC(=O)NC2CCCC2)c(C(C)C)nn1C` | -0.2364 | -4.329 | 37.44 |
| `CC(C)CCc1n[nH]c(C(=O)O)c1Cl` | 0 | 4.927 | -2.242 |
| `CC(=O)c1cccc(S(=O)(=O)NCCNC(=O)c2snnc2C)c1` | 4.998 | -0.2867 | -1.528 |
| `CN(C)C(=O)NCc1nnc2n1CCN(Cc1ccsc1)C2` | 3.257 | -6.587 | -6.034 |
| `O=C(N[C@@H]1CN(Cc2ccccn2)[C@@H]2COC[C@@H]21)C1CCC1` | -2.336 | -0.239 | - |
| `[H][C@]12CC[C@]([H])(CN(Cc3ccccc3)C1)N(C(=O)CCCN(C)C)C2` | - | - | 20.1 |
| `Cc1ccc(OCc2occc2C(=O)N2CCOC(C(=O)O)C2)cc1` (stereo unspecified) | 7.713 | 2.857 | -11.36 |
| `O=C(NCc1ccnc(OCC(F)(F)F)c1)NCC1CCOC1` (stereo unspecified) | -2.558 | 0.8578 | 15.8 |
| `CC(C)c1ccc(S(=O)(=O)N2CCCC3(CCCN3S(C)(=O)=O)C2)cc1` (stereo unspecified) | 2.338 | -6.443 | 22.8 |
| `CCC(Nc1ncnc2sc(C(=O)O)c(C)c12)c1ccnn1C` (stereo unspecified) | 4.372 | 6.049 | 14.15 |
| `Cc1ccc(C(C)(O)CNC(=O)NCCc2ccc3c(c2)CCO3)o1` (stereo unspecified) | 1.84 | -4.271 | -17.51 |
| `Cc1cc(C(=O)N2Cc3ccccc3OC3(CCOCC3)C2)nc(N)n1` | 1.952 | 1.254 | 9.446 |
| `CN(Cc1ccon1)C1CCN(c2cccc(-c3cscn3)c2)CC1` | 6.018 | -5.734 | -3.333 |
| `Cc1nc(N2CCOCC2)nc2c1CN(C(=O)C(C)C)CC2` | 1.155 | -1.493 | 3.25 |
| `Cn1cc(NC(=O)N2CCC(Cc3ccccc3)CC2)ccc1=O` | 8.627 | 0.9358 | 21.69 |
| `CC(C)CCN1N=C(C(=O)N2CCCCCC2)S(=O)(=O)c2ccccc21` | 0.05771 | -3.864 | 10.02 |
| `Cc1[nH]nc2ncc(C(=O)N3CCN(CC(O)C(C)(C)C)CC3)cc12` (stereo unspecified) | 2.033 | 2.275 | 25.46 |
| `CCn1ccnc1CN1CCN(c2ccc3nnc(C)n3n2)CC1` | 7.116 | 2.028 | 17.92 |
| `Cc1nc(-c2cc(C(=O)NCCN3CCOCC3)c3ccccn23)cs1.O=C(O)C(F)(F)F` | - | - | -52.36 |
| `O=C(c1nc2sccn2c1-c1ncc[nH]1)N1CCCCC1` | 3.781 | 0.9646 | -22.63 |
| `Cc1ccc(N2CCC3(CC2)CNC(=O)CO3)nn1` | 6.411 | -2.705 | - |
| `Cc1ccc(CNC(=O)NCc2ccco2)s1` | 1.453 | 2.601 | -39.34 |
| `CC(=O)N1CCC2(CC1)CN(C)CC[C@H]2C(F)(F)F` | 2.419 | -6.88 | - |
| `O=C1CC(c2ccc(C(=O)O)cc2)c2ncn(-c3ccc(F)cc3)c2N1` (stereo unspecified) | 6.498 | 7.725 | 20.41 |
| `COCCN1CCCC1c1ccnc(-c2ccccc2)n1` (stereo unspecified) | 5.245 | -6.454 | -11.9 |
| `Cn1cc(-c2cnc(N3CCOCC3)nc2)cc1C(=O)NCCO.O=C(O)C(F)(F)F` | - | - | 18.13 |
| `COc1ccc(C2=CCN(C(=O)CN(C)Cc3ccoc3)CC2)cc1` | 0.6518 | 4.013 | 22.55 |
| `Cc1c[nH]c(C2COCCN2C(=O)CCc2c(C)n[nH]c2C)n1` (stereo unspecified) | 2.904 | -7.161 | 21.02 |
| `[H][C@@]12COC[C@]1(COCC1CC1)CN(C(=O)c1ccc(F)cc1C)C2` | - | - | 5.487 |
| `CC1c2ncc(Cn3cccn3)n2CCN1S(C)(=O)=O` (stereo unspecified) | -0.05571 | - | - |
| `N#Cc1cccc(CN2CC3(CCCCN3c3cccnc3)CC2=O)c1.O=C(O)C(F)(F)F` (stereo unspecified) | - | - | 13.82 & 4.273 |
| `O=C(c1ccc2nncn2c1)N1CCSC2(CCCCC2)C1` | -0.895 | -2.279 | 6.155 |
| `Fc1ccc(-c2cc(NCCC3CCOC3)n3nccc3n2)cc1` (stereo unspecified) | 7.136 | -1.308 | 23.9 |
| `CC(CO)NC(=O)Nc1ccc(S(C)(=O)=O)nc1` (stereo unspecified) | 2.028 | -0.208 | 18.39 |
| `Cc1cnc(N)c(C(=O)C2CCN(C(=O)c3cnc(C)nc3C)CC2)c1` | 2.731 | - | -16.02 |
| `CC1(C)CN(C(=O)c2ccc3nncn3c2)CCS1` | 7.56 | -1.288 | -1.057 |
| `O=C(O)C(F)(F)F.c1nc2c(c(C3CC3)n1)CCN(CC1CCOC1)CC2` (stereo unspecified) | - | - | 37.67 |
| `CC(C)(C)Nc1c(C2CCN(C(=O)C(C)(C)C)CC2)nc2ccccn12` | 5.194 | 1.319 | 29.96 |
| `Cc1ncsc1C(=O)NC1CCN(CCC(=O)Nc2ccccc2)CC1` | 0.2249 | -2.062 | -62.31 |
| `CN(C)[C@@H]1CCN(S(=O)(=O)C2CC2)[C@H]1Cc1ccccc1` | 4.736 | - | - |
| `O=C(NCC1CCS(=O)(=O)C1)c1ccco1` (stereo unspecified) | 3.168 | 2.194 | 37.8 |
| `CCc1cnc(N)nc1N1CCN(C(C)=O)CC1` | 3.59 | -6.172 | -5.228 |
| `CC(C)c1noc(CN2CCN(CCO)CC2)n1` | -0.8672 | -1.768 | 3.135 |
| `CCNC(=O)[C@@H]1C[C@H](N)CN1C(=O)C1(c2ccc(OC)cc2)CCCC1` | 0.09146 | 1.55 | 23.22 |
| `Cc1nc(C2CN(C)CCO2)cc(N2CCC(CO)CC2)n1` (stereo unspecified) | 1.027 | - | 30.7 |
| `Cc1ncccc1NC(=O)[C@@H]1CCO[C@@H]2CCN(c3ccccc3)C[C@@H]21` | 1.279 | - | - |
| `CC[C@@H](c1ccccc1)n1c(CCN)n[nH]c1=O` | 1.808 | 2.654 | 9.866 |
| `CCC(C)CN1CCC(n2cc(C3CCCCC3)nn2)CC1` (stereo unspecified) | -2.247 | -3.153 | 16.03 |
| `CC(C)CN1CCC2(CCN(CC3CC3)CC2)C1=O.O=C(O)C(F)(F)F` | - | - | 17.4 & 5.289 |
| `[H][C@@]12CCN(C(=O)c3ccnnc3)C[C@@]1([H])O[C@@H](c1nc(C)c(C)s1)C2` | - | - | 13.65 & 6.171 |
| `Cc1ccc(C(C(=O)O)N(C)CCCN2CCOCC2)c(C)c1` (stereo unspecified) | 1.698 | -7.046 | -1.39 |
| `O=C(NCCc1ccccc1)C1CCC(Cn2cnnn2)CC1` (stereo unspecified) | 3.324 | 0.402 | 4.824 |
| `Cn1nnc2c1CCN(C(=O)C1CC1)C2COCCN1CCCC1.O=C(O)C(F)(F)F` (stereo unspecified) | - | - | -13.5 |
| `COCCn1nc(C(=O)N(C)Cc2cccnc2)ccc1=O` | -0.3557 | 0.6478 | -13.39 |
| `CC(=O)N1CCC(NC(=O)CN2CCCc3c(F)ccc(C)c32)CC1` | 1.487 | -2.725 | 31.8 |
| `Cc1nnc2n1CC(CNc1ncnc3ccccc13)CC2` (stereo unspecified) | -1.579 | 3.744 | 13.9 |

The last 4 entries again:

Cn1nnc2c1CCN(C(=O)C1CC1)C2COCCN1CCCC1.O=C(O)C(F)(F)F (stereo unspecified) read C: -13.5%.
COCCn1nc(C(=O)N(C)Cc2cccnc2)ccc1=O read A: -0.3557%; B: 0.6478%; C: -13.39%.
CC(=O)N1CCC(NC(=O)CN2CCCc3c(F)ccc(C)c32)CC1 read A: 1.487%; B: -2.725%; C: 31.8%.
Cc1nnc2n1CC(CNc1ncnc3ccccc13)CC2 (stereo unspecified) read A: -1.579%; B: 3.744%; C: 13.9%.

From ChEMBL document CHEMBL3988442, “University of Dundee, Small-Polar-MMV Screening Library” (2021).